Among the data in publication PMC4489722 are binding values, retold here.

The experiment concerns the target STING (human (endogenous in HMVEC-d, HFF)), Q86WV6. Description: co-IP; endogenous proteins, HFF whole cell lysates in NETN buffer, HSV-1 infected (1 PFU/cell; 30 min and 6 h p.i.); IP anti-STING, western blot for IFI16 and IRF-3. The settings on record: remark: other sources report otherwise. (In general: Immunoblotting shows a protein as a band on a membrane.)

No constants are given. Whether binding was seen depends on the method and setting. Binding seen in cells or lysates may run through a third protein. Some results given as binding are weak or reduced against the parent protein; the word gives no strength.

B1: IRF-3, Q14653 1-427 (protein)
chain: MGTPKPRILPWLVSQLDLGQLEGVAWVNKSRTRFRIPWKHGLRQDAQQEDFGIFQAWAEATGAYVPGRDKPDLPTWKRNFRSALNRKEGLRLAEDRSKDPHDPHKIYEFVNSGVGDFSQPDTSPDTNGGGSTSDTQEDILDELLGNMVLAPLPDPGPPSLAVAPEPCPQPLRSPSLDNPTPFPNLGPSENPLKRLLVPGEEWEFEVTAFYRGRQVFQQTISCPEGLRLVGSEVGDRTLPGWPVTLPDPGMSLTDRGVMSYVRHVLSCLGGGLALWRAGQWLWAQRLGHCHTYWAVSEELLPNSGHGPDGEVPKDKEGGVFDLGPFIVDLITFTEGSGRSPRYALWFCVGESWPQDQPWTKRLVMVKVVPTCLRALVEMARVGGASSLENTVDLHISNSHPLSLTSDQYKAYLQDLVEGMDFQGPGES
Turning to B1, the binding result was “binds”.
